Data from doi:10.1101/2024.03.04.583394.

Key:
[1] = test system: GST-OsPLATZ3 (Oryza sativa); assay: EMSA; conditions: excess unlabelled probe weakened binding
[2] = test system: GST-OsPLATZ3 (Oryza sativa); assay: competition with a labelled probe; conditions: text: failed to bind mutant probe, Table S1 lists it as mutant cold probe

| Sequence | binding result [1] | binding result [2] |
| --- | --- | --- |
| TATTTAAATAGAAATAAAATGATTTATTCA (double strand) [OsAPX9 promoter AT-rich probe (hot/cold probe)] | binds | – |
| TATTTCCCTAGCCCTCCCCTGCTTTCTTCC (double strand) [OsAPX9 promoter mutant probe (mutant cold probe)] | – | no binding |

The exact form of at least one protein or probe is not confirmed. For some assays here: A negative result means that nothing was seen under these conditions.
